# Some of the results follow. Residues, ends and D or L forms follow the SMILES beside them. *: point of attachment. Cbz = O=C(OCc1ccccc1)*
# The chains behind the UniProt entries cited, without tags or fusion partners. Where a name states a change or a piece, a line headed by the entry shows the natural chain unless it says otherwise.
# UniProt P61088: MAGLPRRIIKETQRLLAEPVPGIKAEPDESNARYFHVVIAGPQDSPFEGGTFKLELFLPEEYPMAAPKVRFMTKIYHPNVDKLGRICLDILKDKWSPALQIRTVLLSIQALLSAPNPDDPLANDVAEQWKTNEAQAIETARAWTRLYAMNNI
# UniProt Q9GZZ9, whole entry, looked up: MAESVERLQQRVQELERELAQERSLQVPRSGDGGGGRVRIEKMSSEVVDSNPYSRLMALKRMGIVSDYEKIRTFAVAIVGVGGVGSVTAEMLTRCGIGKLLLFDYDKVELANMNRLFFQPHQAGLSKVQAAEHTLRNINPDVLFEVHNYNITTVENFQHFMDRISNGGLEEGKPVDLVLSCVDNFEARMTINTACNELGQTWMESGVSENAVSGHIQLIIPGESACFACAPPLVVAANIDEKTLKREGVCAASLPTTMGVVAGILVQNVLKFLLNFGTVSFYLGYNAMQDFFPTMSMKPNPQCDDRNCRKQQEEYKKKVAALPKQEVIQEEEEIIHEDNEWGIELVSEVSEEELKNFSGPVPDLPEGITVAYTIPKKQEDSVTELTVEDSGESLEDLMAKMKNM
# UniProt Q6IBS0: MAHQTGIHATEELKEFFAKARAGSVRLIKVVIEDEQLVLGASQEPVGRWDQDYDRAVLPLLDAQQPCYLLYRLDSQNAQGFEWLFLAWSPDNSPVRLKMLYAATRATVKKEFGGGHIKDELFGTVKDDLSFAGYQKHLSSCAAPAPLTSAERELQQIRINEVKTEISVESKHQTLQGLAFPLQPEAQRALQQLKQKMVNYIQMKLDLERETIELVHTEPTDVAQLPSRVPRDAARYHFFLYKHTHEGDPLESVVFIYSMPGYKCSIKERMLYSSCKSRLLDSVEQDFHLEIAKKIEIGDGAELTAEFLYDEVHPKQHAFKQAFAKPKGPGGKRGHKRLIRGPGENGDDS
# UniProt Q9UJK0: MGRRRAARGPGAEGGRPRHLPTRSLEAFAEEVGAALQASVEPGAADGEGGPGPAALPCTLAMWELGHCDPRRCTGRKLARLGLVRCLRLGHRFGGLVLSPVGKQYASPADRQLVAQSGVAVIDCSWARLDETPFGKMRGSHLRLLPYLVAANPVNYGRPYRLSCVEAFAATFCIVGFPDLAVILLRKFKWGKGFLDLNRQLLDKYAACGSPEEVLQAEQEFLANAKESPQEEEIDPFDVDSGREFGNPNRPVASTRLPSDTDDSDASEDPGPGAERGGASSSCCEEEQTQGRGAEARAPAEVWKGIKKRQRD
# UniProt Q99816: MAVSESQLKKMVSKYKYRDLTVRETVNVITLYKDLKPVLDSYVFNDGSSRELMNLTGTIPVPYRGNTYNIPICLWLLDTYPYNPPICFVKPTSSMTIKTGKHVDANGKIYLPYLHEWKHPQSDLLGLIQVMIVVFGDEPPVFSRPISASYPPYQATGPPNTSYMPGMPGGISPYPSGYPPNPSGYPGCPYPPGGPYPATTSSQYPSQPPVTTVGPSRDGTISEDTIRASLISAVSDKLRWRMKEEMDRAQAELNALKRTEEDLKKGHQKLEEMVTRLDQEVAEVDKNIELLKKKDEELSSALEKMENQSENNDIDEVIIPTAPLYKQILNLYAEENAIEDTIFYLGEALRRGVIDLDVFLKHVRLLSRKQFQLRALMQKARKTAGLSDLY
# UniProt Q99614: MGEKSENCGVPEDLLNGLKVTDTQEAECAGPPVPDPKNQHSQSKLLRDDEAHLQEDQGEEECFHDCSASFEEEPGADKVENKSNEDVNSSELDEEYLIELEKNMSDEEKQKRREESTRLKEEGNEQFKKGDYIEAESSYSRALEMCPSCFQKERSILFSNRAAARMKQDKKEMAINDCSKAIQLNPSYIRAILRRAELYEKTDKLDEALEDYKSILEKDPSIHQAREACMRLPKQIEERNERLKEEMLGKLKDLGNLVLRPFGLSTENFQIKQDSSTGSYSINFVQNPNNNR
# UniProt Q8NBM4: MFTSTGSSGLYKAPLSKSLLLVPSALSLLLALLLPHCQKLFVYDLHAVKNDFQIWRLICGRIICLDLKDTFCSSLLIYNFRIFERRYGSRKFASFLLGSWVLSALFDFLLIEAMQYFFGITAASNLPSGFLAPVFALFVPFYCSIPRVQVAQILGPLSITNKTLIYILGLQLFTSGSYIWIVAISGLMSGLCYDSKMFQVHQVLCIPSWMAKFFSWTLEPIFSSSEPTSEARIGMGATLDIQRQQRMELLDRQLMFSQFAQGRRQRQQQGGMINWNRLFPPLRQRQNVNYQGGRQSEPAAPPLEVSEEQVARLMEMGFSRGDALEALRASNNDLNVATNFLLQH
# UniProt Q5JXB2: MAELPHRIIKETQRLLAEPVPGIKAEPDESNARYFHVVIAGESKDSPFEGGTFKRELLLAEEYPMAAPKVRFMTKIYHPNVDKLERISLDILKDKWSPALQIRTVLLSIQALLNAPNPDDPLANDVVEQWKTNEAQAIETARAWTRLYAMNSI
# UniProt Q13509, whole entry, looked up: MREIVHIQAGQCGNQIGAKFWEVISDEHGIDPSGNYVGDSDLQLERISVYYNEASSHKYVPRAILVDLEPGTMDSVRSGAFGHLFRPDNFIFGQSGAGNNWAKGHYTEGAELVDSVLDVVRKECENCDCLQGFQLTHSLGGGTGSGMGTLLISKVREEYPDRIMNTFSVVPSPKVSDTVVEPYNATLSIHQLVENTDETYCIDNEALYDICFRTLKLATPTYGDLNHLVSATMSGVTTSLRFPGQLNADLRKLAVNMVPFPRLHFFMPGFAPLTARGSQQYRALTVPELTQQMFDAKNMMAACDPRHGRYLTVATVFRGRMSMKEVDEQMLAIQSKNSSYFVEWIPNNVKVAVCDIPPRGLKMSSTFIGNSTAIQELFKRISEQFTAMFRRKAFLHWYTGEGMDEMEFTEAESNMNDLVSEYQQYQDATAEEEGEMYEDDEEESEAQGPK
# UniProt Q05086: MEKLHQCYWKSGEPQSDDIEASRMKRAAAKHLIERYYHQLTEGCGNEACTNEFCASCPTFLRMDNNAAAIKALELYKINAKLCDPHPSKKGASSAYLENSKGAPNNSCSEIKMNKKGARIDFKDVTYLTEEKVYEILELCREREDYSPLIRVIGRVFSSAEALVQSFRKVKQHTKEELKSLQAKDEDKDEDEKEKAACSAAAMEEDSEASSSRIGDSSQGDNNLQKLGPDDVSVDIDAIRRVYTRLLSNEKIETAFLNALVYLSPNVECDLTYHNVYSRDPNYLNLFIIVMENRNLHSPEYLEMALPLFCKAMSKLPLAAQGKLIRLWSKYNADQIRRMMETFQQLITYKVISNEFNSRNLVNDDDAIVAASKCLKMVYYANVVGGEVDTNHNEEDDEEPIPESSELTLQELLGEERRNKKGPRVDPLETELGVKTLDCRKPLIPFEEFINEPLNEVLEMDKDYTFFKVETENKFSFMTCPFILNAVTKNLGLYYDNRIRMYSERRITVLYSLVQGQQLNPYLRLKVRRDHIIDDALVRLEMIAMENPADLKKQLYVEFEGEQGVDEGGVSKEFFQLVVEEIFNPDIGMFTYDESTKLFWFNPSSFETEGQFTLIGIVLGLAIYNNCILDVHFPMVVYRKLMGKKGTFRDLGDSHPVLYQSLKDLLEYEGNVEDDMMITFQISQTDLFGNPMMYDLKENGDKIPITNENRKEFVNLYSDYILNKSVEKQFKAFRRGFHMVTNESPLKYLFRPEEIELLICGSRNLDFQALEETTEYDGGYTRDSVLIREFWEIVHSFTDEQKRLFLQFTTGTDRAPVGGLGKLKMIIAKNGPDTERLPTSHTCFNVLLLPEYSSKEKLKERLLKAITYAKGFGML
# UniProt Q9NZ09: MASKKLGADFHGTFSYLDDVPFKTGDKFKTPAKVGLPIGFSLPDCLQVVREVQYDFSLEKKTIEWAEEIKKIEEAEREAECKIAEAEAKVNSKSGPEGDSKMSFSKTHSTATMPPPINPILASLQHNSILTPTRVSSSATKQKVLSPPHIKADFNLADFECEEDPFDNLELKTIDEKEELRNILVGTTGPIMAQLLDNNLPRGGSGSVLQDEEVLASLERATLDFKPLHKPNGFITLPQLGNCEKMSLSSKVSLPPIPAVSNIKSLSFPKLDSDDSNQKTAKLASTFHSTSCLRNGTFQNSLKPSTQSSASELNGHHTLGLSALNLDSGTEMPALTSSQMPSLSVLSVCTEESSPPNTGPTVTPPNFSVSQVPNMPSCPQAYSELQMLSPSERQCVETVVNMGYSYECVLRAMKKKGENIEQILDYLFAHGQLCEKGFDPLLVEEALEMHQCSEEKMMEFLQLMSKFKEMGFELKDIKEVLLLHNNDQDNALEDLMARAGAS
# UniProt P0CG48, whole entry, looked up: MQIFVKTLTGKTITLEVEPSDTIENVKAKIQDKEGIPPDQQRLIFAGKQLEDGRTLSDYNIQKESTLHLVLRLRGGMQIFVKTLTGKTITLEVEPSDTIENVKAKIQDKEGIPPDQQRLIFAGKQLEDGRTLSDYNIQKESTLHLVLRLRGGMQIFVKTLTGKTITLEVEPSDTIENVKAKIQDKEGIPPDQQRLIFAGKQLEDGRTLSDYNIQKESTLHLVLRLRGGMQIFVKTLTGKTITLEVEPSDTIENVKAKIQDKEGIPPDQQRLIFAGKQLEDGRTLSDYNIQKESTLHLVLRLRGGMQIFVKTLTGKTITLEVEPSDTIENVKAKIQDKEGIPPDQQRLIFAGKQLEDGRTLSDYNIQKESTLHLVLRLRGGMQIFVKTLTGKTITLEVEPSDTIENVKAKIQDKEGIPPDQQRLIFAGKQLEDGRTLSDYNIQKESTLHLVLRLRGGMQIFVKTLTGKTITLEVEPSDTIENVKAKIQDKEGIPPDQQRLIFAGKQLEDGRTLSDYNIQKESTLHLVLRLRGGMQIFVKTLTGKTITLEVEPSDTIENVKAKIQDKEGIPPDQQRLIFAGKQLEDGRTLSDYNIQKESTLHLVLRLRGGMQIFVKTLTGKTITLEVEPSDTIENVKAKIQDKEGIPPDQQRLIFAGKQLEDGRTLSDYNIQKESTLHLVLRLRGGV
# UniProt Q8TBC4: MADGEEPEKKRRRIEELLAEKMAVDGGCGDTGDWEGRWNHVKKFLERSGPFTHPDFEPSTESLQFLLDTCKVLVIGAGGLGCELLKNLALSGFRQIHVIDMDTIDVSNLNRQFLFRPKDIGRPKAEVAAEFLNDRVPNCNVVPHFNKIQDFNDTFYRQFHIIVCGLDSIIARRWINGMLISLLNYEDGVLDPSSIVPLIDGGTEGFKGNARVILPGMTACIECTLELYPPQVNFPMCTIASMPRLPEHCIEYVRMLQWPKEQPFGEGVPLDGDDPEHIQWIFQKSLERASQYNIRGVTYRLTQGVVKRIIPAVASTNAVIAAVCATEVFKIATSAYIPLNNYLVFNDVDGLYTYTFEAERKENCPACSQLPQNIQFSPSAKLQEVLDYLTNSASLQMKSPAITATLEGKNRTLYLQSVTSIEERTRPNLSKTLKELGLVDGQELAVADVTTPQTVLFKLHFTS
# UniProt Q969T4: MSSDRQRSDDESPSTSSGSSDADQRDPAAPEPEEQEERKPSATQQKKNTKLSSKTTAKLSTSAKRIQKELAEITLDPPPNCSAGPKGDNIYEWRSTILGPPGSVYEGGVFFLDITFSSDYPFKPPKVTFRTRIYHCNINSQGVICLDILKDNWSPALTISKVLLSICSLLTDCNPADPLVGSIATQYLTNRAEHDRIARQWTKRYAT
# UniProt Q13885, whole entry, looked up: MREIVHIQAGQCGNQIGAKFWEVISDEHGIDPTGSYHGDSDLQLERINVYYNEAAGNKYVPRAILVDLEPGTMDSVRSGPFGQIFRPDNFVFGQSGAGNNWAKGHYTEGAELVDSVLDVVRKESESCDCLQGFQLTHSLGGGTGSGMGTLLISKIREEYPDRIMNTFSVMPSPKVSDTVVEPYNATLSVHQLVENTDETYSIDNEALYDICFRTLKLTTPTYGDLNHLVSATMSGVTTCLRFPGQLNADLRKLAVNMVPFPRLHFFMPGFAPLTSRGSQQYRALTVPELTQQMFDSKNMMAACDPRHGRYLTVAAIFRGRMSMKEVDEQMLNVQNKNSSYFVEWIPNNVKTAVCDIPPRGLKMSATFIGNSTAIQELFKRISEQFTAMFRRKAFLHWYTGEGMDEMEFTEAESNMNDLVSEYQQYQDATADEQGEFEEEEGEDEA
# UniProt Q9H3M7: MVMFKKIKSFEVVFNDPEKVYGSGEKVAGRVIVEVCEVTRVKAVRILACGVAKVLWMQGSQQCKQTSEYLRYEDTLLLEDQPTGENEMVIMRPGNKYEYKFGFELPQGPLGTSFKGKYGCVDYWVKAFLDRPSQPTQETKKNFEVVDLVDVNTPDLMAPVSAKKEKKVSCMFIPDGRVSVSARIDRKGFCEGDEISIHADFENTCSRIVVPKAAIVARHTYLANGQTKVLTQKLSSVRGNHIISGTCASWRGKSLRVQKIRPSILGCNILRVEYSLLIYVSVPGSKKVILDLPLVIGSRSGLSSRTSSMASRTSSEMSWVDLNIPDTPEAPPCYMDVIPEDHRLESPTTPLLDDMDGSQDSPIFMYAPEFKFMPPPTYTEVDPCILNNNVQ
# UniProt P63279, whole entry, looked up: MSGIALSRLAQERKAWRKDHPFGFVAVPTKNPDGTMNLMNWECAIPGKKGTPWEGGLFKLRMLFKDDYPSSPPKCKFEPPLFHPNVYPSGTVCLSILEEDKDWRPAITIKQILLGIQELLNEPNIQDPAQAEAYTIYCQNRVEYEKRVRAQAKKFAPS
# Assays:
# Experiment in all cases: log2 fold change, soluble protein after heating vs DMSO (PISA); higher = thermal stabilisation; K562 cells, 10 uM, 30 min; active = over 0.2 and 3.5 SD of the protein, either way, in both replicates (recomputed)
# IRAK-1-4 Inhibitor I = compound: C1COCCN1CCN2C3=CC=CC=C3N=C2NC(=O)C4=CC(=CC=C4)[N+](=O)[O-] [IRAK-1-4 Inhibitor I]
# In short: (§1)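 K562 cells (2×10^6 cells/mL) were treated with 10 μM compound for 30 min, and aliquots were heated for 3 min over 48°C-58°C. Pooled aliquots were extracted in PBS with 0.5% NP-40 at 4°C, and the supernatant after 21,000xg for 90 min was measured by TMTpro 16plex LC-MS/MS with channel sums equalised. Reported thermal stability, relative to control samples and from duplicates, is a log2 fold change.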
# ibrutinib = compound: C=CC(=O)N1CCC[C@@H](n2nc(-c3ccc(Oc4ccccc4)cc3)c3c(N)ncnc32)C1 [ibrutinib]
# In short: as §1
# [1] = compound: CC(=O)c1cnc2ccc(-c3cc(Cl)c(O)c(Cl)c3)nc2c1N[C@H]1CC[C@H](CN(C)C)CC1
# In short: as §1
# ralimetinib = compound: CC(C)(C)Cn1c(N)nc2ccc(-c3[nH]c(C(C)(C)C)nc3-c3ccc(F)cc3)nc21 [ralimetinib]
# In short: as §1
# [2] = compound: CC(C)(O)CC(=O)NCCn1ccc2ncnc(Nc3ccc(Oc4cccc(C(F)(F)F)c4)c(Cl)c3)c21
# In short: as §1
# [3] = compound: CC(C)C1=C2N=C(C=C(N2N=C1)NCC3=CC=CC=C3)NCCCCCCN
# In short: as §1
# [4] = compound: CC(C)C[C@@H](C=O)NC(=O)[C@H](CC(C)C)NC(=O)[C@H](CC(C)C)NC(=O)OCc1ccccc1
# In short: as §1
# pinometostat = compound: CC(C)N(C[C@H]1O[C@@H](n2cnc3c(N)ncnc32)[C@H](O)[C@@H]1O)[C@H]1C[C@@H](CCc2nc3cc(C(C)(C)C)ccc3[nH]2)C1 [pinometostat]
# In short: as §1
# [5] = compound: CC1=C(C(CC(=O)N1)C2=CC=C(C=C2)C(F)(F)F)C(=O)NC3=C(C=C4C(=C3)C=NN4)F
# In short: as §1
# [6] = compound: CC1=C(C2=C(C=C1)C(=O)C3=CC=CC=C3N2CCCN)C
# In short: as §1
Target,log2 fold change (IRAK-1-4 Inhibitor I),log2 fold change (ibrutinib),log2 fold change [1],log2 fold change (ralimetinib),log2 fold change [2],log2 fold change [3],log2 fold change [4],log2 fold change (pinometostat),log2 fold change [5],log2 fold change [6]
UBE2G1 (UniProt P62253),inactive: 0.048,inactive: -0.027,inactive: 0.023,inactive: -0.062,inactive: 0,inactive: -0.081,inactive: -0.049,inactive: 0.007,inactive: 0.008,inactive: -0.023
UBE2N (UniProt P61088),inactive: 0.003,inactive: -0.014,inactive: 0.005,inactive: -0.047,inactive: -0.035,inactive: -0.024,inactive: -0.103,inactive: -0.056,inactive: 0.112,inactive: 0.102
UBA5 (UniProt Q9GZZ9),inactive: 0.013,inactive: -0.008,inactive: -0.077,inactive: -0.059,inactive: -0.069,inactive: -0.023,inactive: -0.051,inactive: -0.042,inactive: -0.02,inactive: 0.008
TTLL12 (UniProt Q14166),inactive: -0.174,inactive: 0.135,inactive: -0.004,inactive: 0.26,inactive: 0,inactive: -0.392,inactive: 0.269,inactive: 0.565,inactive: 0.01,inactive: -0.031
TXNRD2 (UniProt Q9NNW7),inactive: 0.005,inactive: 0.007,inactive: -0.016,inactive: -0.047,inactive: -0.055,inactive: 0.075,inactive: 0.003,inactive: -0.046,inactive: 0.07,inactive: -0.01
TWF2 (UniProt Q6IBS0),inactive: 0.012,inactive: -0.029,inactive: -0.003,inactive: -0.015,inactive: -0.042,inactive: 0.019,inactive: -0.011,inactive: 0.019,inactive: -0.093,inactive: 0.002
TXNDC9 (UniProt O14530),inactive: -0.009,inactive: -0.019,inactive: -0.009,inactive: 0.039,inactive: -0.04,inactive: -0.042,inactive: 0.004,inactive: 0.012,inactive: 0.002,inactive: -0.039
TTC27 (UniProt Q6P3X3),inactive: -0.079,inactive: -0.135,inactive: 0.062,inactive: 0.192,inactive: -0.02,inactive: -0.327,inactive: 0.092,inactive: 0.277,inactive: 0.008,inactive: -0.004
TSR3 (UniProt Q9UJK0),inactive: -0.027,inactive: -0.009,inactive: -0.057,inactive: 0.006,inactive: 0.073,inactive: 0.01,inactive: 0.088,inactive: 0.063,inactive: 0.019,inactive: 0.002
TXNL1 (UniProt O43396),inactive: -0.035,inactive: -0.014,inactive: -0.001,inactive: -0.003,inactive: -0.03,inactive: -0.052,active: 0.278,inactive: -0.029,–,inactive: 0.038
TTI2 (UniProt Q6NXR4),inactive: -0.032,inactive: -0.006,inactive: 0.005,inactive: 0.033,inactive: -0.196,inactive: -0.079,inactive: 0.032,inactive: 0.016,–,inactive: 0.033
TSFM (UniProt P43897),inactive: -0.065,inactive: -0.134,inactive: -0.067,inactive: 0.011,inactive: -0.254,inactive: 0.069,inactive: -0.058,inactive: -0.08,–,inactive: 0.258
TSG101 (UniProt Q99816),inactive: 0.05,inactive: 0.004,inactive: -0.017,inactive: -0.005,inactive: -0.025,inactive: -0.146,inactive: 0.031,inactive: -0.003,–,inactive: -0.012
TTC1 (UniProt Q99614),inactive: 0.057,inactive: 0.022,inactive: 0,inactive: -0.019,inactive: 0.046,inactive: 0.046,inactive: -0.002,inactive: -0.026,inactive: 0.012,inactive: -0.006
UBAC2 (UniProt Q8NBM4),inactive: 0.057,inactive: -0.019,inactive: -0.056,inactive: 0.101,inactive: -0.043,inactive: -0.273,inactive: -0.007,inactive: 0,inactive: -0.436,inactive: -0.039
UBE2NL (UniProt Q5JXB2),inactive: 0,inactive: -0.017,inactive: -0.006,inactive: -0.092,inactive: 0.005,inactive: 0.009,inactive: -0.025,inactive: -0.012,inactive: -0.008,inactive: 0.191

Target,log2 fold change (IRAK-1-4 Inhibitor I),log2 fold change (ibrutinib),log2 fold change [1],log2 fold change (ralimetinib),log2 fold change [2],log2 fold change [3],log2 fold change [4],log2 fold change (pinometostat),log2 fold change [5],log2 fold change [6]
TUBB3 (UniProt Q13509),inactive: 0.095,inactive: 0.054,inactive: 0.032,inactive: 0.004,inactive: -0.021,inactive: -0.006,inactive: -0.012,inactive: -0.023,inactive: 0.007,inactive: 0.003
UBE2Q1 (UniProt Q7Z7E8),inactive: 0.024,inactive: -0.012,inactive: 0.029,inactive: -0.015,inactive: -0.062,inactive: -0.192,inactive: -0.11,inactive: 0.005,–,inactive: -0.006
UBE3A (UniProt Q05086),inactive: 0.023,inactive: -0.003,inactive: -0.031,inactive: -0.021,inactive: -0.025,inactive: 0,inactive: 0.002,inactive: -0.005,inactive: 0.002,inactive: -0.011
UBAP1 isoform 4 (UniProt Q9NZ09),inactive: -0.058,inactive: 0.07,inactive: -0.001,inactive: -0.024,inactive: -0.044,inactive: -0.087,inactive: 0.107,inactive: 0.018,–,inactive: -0.112
U2SURP (UniProt O15042),inactive: -0.131,inactive: -0.114,inactive: -0.191,inactive: 0.086,inactive: -0.018,inactive: -0.194,inactive: 0.094,inactive: 0.083,inactive: -0.049,inactive: -0.015
UBC (UniProt P0CG48),inactive: 0.022,inactive: 0.027,inactive: 0.033,inactive: -0.064,inactive: 0.008,inactive: 0.167,active: 0.296,inactive: 0.042,–,active: 0.281
UBA3 (UniProt Q8TBC4),inactive: -0.014,inactive: 0.008,inactive: -0.033,inactive: -0.015,inactive: -0.118,inactive: -0.145,inactive: -0.028,inactive: -0.009,inactive: 0.051,inactive: 0.007
UBE2S (UniProt Q16763),inactive: -0.065,inactive: -0.035,inactive: -0.037,inactive: 0.03,inactive: -0.034,inactive: 0.018,inactive: 0.125,inactive: -0.05,–,inactive: -0.055
UBE2E3 (UniProt Q969T4),inactive: 0.106,inactive: -0.059,inactive: -0.027,inactive: 0.069,inactive: -0.046,inactive: -0.08,inactive: -0.039,inactive: 0.096,–,inactive: 0.066
TUBAL3 (UniProt A6NHL2),inactive: -0.046,inactive: -0.005,inactive: -0.039,inactive: -0.044,inactive: -0.047,inactive: 0.003,inactive: -0.102,inactive: -0.108,–,inactive: -0.094
TUBB2A (UniProt Q13885),inactive: 0.049,inactive: 0.024,inactive: 0.017,inactive: -0.022,inactive: -0.054,inactive: 0.038,inactive: 0.011,inactive: -0.02,inactive: 0.054,inactive: 0
TXNIP (UniProt Q9H3M7),inactive: 0.05,inactive: 0.016,inactive: -0.053,inactive: 0.13,inactive: 0.072,inactive: -0.371,inactive: 0.128,inactive: -0.083,–,active: -0.42
UBE2I (UniProt P63279),inactive: 0.028,inactive: 0,inactive: 0.023,inactive: -0.062,inactive: -0.042,inactive: -0.009,inactive: -0.001,inactive: -0.029,inactive: -0.021,inactive: 0.051
TXLNG (UniProt Q9NUQ3),inactive: 0.034,inactive: -0.013,inactive: -0.063,inactive: -0.008,inactive: -0.001,inactive: 0.035,inactive: -0.015,inactive: -0.037,inactive: -0.021,inactive: 0.051
TSR1 (UniProt Q2NL82),inactive: -0.152,inactive: 0.028,inactive: -0.075,inactive: 0.143,inactive: 0,inactive: -0.112,inactive: 0.103,inactive: 0.192,inactive: -0.05,inactive: -0.131

# Looked up one by one from above:
Target,log2 fold change (IRAK-1-4 Inhibitor I),log2 fold change (ibrutinib),log2 fold change [1],log2 fold change (ralimetinib),log2 fold change [2],log2 fold change [3],log2 fold change [4],log2 fold change (pinometostat),log2 fold change [5],log2 fold change [6]
TUBB2A (UniProt Q13885),inactive: 0.049,inactive: 0.024,inactive: 0.017,inactive: -0.022,inactive: -0.054,inactive: 0.038,inactive: 0.011,inactive: -0.02,inactive: 0.054,inactive: 0
TSR1 (UniProt Q2NL82),inactive: -0.152,inactive: 0.028,inactive: -0.075,inactive: 0.143,inactive: 0,inactive: -0.112,inactive: 0.103,inactive: 0.192,inactive: -0.05,inactive: -0.131
